In the supplement of paper PMC10849652:
Some of the results follow.

By UniProt entry, the sequences of proteins in these tests, tags left out. Where a name states a change or a piece, a line headed by the entry shows the natural chain unless it says otherwise.
UniProt Q9Y680: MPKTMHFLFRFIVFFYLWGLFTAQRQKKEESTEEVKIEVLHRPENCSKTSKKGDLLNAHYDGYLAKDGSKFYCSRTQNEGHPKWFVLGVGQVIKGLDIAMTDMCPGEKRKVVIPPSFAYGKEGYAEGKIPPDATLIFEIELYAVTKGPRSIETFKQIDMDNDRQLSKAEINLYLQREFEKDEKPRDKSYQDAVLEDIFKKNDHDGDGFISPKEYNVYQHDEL
UniProt Q9Y324: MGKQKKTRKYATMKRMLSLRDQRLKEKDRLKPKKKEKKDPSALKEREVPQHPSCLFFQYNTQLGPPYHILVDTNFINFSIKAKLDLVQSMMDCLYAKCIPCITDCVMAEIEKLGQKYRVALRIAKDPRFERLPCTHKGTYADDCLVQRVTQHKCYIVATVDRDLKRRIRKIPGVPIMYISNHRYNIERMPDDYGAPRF
UniProt Q02790: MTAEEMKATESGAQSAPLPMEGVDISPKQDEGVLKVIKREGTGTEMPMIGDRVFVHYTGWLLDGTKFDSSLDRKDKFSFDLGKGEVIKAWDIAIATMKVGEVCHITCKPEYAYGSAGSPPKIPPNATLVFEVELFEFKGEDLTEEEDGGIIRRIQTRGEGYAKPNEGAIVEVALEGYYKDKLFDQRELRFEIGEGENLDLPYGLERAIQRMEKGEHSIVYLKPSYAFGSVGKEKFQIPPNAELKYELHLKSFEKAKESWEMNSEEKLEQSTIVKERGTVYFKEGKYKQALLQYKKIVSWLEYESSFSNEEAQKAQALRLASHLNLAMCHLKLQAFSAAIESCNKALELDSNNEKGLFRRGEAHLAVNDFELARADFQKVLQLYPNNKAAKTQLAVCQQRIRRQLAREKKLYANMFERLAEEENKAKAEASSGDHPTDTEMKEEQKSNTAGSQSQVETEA
UniProt P22830: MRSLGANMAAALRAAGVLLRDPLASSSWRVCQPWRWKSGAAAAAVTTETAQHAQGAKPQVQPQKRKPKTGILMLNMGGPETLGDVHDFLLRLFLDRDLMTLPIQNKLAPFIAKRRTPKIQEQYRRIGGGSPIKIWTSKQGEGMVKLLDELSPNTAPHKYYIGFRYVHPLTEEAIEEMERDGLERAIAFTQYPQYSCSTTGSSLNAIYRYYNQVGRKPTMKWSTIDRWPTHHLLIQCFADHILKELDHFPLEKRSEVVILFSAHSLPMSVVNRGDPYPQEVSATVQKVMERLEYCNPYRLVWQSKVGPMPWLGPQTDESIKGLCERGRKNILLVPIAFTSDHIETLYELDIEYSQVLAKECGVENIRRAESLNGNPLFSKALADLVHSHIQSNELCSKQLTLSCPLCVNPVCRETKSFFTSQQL
UniProt Q52LJ0: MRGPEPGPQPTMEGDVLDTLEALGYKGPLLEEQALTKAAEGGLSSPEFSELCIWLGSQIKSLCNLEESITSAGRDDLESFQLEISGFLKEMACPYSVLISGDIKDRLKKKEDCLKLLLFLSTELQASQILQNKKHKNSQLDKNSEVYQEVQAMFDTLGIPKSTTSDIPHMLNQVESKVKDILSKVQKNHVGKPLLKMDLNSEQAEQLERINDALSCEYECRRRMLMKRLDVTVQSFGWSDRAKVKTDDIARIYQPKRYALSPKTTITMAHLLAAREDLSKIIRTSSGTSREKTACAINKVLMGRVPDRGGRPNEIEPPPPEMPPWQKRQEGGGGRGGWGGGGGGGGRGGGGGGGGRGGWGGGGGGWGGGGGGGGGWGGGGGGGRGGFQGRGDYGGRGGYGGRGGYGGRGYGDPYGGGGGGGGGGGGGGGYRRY
UniProt P31995: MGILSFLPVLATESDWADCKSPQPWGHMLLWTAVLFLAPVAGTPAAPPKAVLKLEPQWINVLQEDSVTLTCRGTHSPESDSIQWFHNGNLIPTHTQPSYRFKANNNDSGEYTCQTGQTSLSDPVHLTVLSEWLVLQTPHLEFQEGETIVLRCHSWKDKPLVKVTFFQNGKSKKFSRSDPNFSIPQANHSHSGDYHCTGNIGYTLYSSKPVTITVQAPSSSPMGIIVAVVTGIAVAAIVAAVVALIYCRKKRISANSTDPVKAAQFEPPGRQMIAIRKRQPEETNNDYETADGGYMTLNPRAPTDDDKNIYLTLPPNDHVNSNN
UniProt Q9NVI1: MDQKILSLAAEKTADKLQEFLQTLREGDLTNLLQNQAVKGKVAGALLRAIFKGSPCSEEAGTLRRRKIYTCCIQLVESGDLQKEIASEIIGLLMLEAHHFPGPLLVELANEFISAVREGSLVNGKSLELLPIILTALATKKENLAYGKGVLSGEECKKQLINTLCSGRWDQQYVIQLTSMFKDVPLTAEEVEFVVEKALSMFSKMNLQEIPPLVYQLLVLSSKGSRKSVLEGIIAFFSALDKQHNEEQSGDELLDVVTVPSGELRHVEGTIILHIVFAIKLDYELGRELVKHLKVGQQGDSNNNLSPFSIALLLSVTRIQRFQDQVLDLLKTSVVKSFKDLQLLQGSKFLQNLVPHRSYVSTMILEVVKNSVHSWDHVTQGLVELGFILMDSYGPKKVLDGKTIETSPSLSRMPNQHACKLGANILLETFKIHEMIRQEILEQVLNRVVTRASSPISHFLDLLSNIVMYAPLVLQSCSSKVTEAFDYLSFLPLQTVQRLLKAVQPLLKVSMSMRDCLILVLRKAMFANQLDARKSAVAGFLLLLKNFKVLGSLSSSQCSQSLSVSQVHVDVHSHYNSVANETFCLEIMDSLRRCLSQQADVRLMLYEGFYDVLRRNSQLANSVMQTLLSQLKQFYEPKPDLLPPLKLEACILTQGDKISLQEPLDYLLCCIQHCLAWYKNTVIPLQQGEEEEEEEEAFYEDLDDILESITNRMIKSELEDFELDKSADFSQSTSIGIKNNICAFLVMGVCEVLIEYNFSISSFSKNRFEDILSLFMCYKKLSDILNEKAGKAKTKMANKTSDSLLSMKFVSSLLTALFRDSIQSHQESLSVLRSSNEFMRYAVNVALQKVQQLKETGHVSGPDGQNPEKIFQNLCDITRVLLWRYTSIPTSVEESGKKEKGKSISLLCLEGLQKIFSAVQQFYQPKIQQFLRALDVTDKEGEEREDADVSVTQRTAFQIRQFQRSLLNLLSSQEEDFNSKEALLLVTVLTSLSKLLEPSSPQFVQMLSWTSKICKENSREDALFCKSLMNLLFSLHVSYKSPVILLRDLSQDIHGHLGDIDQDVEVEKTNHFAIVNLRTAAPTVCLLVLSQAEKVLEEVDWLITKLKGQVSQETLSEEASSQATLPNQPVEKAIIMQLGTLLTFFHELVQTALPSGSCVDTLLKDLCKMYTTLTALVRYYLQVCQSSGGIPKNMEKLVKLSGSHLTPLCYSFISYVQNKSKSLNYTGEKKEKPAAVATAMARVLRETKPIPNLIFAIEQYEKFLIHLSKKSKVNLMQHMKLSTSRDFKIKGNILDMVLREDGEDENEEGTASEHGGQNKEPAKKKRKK
UniProt Q6P4F2: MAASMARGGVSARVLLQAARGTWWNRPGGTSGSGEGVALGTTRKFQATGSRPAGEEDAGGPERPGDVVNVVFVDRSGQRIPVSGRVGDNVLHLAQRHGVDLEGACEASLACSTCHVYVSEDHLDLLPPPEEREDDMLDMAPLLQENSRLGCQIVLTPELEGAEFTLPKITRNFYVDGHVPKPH
UniProt Q00688: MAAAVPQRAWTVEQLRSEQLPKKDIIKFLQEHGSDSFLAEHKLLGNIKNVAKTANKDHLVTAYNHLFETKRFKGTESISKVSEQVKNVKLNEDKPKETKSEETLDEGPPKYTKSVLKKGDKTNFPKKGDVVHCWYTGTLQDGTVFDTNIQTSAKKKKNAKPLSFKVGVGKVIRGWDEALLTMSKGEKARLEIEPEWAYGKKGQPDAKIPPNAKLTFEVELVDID
UniProt Q6UN15: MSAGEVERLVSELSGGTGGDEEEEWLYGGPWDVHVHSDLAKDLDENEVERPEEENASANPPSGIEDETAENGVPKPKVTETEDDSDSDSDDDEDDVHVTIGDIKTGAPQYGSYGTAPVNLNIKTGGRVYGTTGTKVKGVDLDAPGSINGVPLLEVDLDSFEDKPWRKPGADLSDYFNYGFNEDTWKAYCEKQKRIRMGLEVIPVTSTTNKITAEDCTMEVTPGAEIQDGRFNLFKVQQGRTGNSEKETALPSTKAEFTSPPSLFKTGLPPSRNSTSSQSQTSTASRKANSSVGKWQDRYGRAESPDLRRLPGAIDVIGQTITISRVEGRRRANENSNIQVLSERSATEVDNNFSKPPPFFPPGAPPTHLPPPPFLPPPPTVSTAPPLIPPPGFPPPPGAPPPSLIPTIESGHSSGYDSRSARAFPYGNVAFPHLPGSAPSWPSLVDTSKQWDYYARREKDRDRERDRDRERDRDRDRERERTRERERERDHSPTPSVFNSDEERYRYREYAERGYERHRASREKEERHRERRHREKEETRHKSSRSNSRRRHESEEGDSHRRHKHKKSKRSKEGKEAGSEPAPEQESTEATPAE
UniProt O14526: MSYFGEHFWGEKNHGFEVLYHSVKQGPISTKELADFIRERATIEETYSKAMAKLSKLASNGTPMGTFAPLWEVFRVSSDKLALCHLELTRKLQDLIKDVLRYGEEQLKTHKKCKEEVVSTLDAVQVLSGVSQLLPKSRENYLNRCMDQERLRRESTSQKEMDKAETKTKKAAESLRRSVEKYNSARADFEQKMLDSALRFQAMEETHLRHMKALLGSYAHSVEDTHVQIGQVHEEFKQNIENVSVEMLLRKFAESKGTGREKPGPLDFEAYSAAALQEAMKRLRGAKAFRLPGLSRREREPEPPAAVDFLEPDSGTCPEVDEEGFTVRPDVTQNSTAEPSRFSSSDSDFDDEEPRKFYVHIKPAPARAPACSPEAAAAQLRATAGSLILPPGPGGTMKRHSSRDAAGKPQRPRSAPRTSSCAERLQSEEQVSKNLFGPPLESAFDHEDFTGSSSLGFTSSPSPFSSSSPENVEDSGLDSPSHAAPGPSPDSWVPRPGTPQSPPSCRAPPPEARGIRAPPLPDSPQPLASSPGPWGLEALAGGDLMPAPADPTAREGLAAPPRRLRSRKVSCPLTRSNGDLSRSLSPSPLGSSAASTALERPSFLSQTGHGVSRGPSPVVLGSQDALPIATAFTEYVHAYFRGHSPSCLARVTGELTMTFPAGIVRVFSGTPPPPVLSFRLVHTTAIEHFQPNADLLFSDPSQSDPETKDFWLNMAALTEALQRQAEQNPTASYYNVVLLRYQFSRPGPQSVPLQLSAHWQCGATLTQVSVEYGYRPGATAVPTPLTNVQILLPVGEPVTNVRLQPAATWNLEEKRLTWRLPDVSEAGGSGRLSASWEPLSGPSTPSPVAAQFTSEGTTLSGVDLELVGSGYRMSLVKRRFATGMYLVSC
UniProt Q8NEZ5: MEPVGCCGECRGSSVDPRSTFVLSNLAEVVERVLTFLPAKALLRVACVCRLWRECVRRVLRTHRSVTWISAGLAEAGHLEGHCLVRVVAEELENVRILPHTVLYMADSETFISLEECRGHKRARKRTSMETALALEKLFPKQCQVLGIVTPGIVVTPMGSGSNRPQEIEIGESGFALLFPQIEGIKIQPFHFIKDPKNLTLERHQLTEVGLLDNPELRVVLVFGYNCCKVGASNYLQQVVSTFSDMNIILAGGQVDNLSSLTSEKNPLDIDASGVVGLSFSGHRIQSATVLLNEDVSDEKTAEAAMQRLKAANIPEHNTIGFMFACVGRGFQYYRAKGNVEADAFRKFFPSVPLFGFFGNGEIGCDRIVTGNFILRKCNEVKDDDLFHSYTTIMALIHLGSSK
UniProt P14324: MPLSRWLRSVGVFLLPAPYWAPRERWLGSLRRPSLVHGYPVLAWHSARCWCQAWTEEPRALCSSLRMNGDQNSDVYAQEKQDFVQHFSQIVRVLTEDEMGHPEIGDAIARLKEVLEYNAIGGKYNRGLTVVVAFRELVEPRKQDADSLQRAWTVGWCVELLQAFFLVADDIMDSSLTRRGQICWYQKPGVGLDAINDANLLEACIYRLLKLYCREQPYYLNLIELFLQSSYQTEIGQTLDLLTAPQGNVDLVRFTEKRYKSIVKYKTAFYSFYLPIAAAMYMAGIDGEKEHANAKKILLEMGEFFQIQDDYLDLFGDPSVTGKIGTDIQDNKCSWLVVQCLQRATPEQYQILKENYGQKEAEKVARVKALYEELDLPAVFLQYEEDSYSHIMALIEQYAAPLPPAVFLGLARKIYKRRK
UniProt Q14318: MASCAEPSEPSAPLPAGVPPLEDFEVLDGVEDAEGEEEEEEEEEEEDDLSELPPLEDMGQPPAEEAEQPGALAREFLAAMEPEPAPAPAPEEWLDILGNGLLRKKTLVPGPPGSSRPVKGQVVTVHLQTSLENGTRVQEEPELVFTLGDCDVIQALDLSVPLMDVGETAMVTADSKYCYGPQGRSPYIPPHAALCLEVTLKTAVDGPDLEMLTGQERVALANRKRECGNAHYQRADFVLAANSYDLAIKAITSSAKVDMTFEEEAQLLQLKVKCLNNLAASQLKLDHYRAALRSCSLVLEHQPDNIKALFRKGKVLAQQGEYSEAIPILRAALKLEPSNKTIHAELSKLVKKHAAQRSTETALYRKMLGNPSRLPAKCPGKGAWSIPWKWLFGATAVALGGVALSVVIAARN

Tests used:
Assay in all cases: log2 fold change, soluble protein after heating vs DMSO (PISA); higher = thermal stabilisation; K562 cells, 10 uM, 30 min; active = over 0.2 and 3.5 SD of the protein, either way, in both replicates (recomputed)
[1] = compound: CC1=C(C=C(C=C1)NC(=O)C2=CC(=CC=C2)C(C)(C)C#N)NC3=CC4=C(C=C3)N=CN(C4=O)C
How it was run: (§1)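 For each measurement, 10 μM compound was applied for 30 min to K562 cells at 2×10^6 cells/mL. Aliquots were heated for 3 min across 48°C-58°C, pooled, and extracted in PBS with 0.5% NP-40 at 4°C; the supernatant after 21,000xg for 90 min was soluble protein. This was quantified by TMTpro 16plex LC-MS/MS with channel sums equalised, and thermal stability was reported relative to control samples from duplicates, on a log2 fold-change scale.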

[2] = compound: CC1=C(C=C(C=C1)NC(=O)C2=CC(=CC=C2)N(C)C)NC(=O)C3=CC=C(C=C3)O
How it was run: as §1

[3] = compound: CC1=CC=C(C=C1)SC2=C3C=C(SC3=CN=C2)C(=O)N
How it was run: as §1

[4] = compound: CC1=NC(=CC=C1)C2=C(N=C(N2)C(C)(C)C)C3=CC4=NC=CN=C4C=C3
How it was run: as §1

Nexturastat A = compound: CCCCN(Cc1ccc(C(=O)NO)cc1)C(=O)Nc1ccccc1 [Nexturastat A]
How it was run: as §1

vemurafenib = compound: CCCS(=O)(=O)Nc1ccc(F)c(C(=O)c2c[nH]c3ncc(-c4ccc(Cl)cc4)cc23)c1F [vemurafenib]
How it was run: as §1

[5] = compound: CCCS(=O)(=O)Nc1ccc(F)c(C(=O)c2c[nH]c3ncc(Cl)cc23)c1F
How it was run: as §1

[6] = compound: CCCc1cc(C)[nH]c(=O)c1CNC(=O)c1cc(-c2ccnc(N3CCN(C)CC3)c2)cc2c1cnn2C(C)C
How it was run: as §1

givinostat = compound: CCN(CC)Cc1ccc2cc(COC(=O)Nc3ccc(C(=O)NO)cc3)ccc2c1 [givinostat]
How it was run: as §1

barasertib = compound: CCN(CCCOc1ccc2c(Nc3cc(CC(=O)Nc4cccc(F)c4)[nH]n3)ncnc2c1)CCOP(=O)(O)O [barasertib]
How it was run: as §1

Measured: log2 fold change

FKBP7 (UniProt Q9Y680)
inactive: [1] -0.052 | [2] 0.001 | [3] -0.034 | [4] -0.074 | Nexturastat A 0.002 | vemurafenib -0.031 | [5] -0.097 | [6] -0.025 | givinostat 0.002 | barasertib 0.044

FCF1 (UniProt Q9Y324)
inactive: [1] 0.017 | [2] -0.011 | [3] -0.114 | [4] -0.187 | Nexturastat A 0.271 | vemurafenib -0.139 | [5] -0.167 | [6] 0.324

FKBP4 (UniProt Q02790)
inactive: [1] 0.032 | [2] -0.037 | [3] 0.015 | [4] 0.045 | Nexturastat A -0.027 | vemurafenib 0.032 | [5] 0.06 | [6] -0.009 | givinostat 0.012 | barasertib 0.013

FKBPL (UniProt Q9UIM3)
inactive: [1] 0.011 | [2] 0.006 | [3] -0.047 | [4] 0 | Nexturastat A 0 | vemurafenib -0.017 | [5] -0.013 | [6] -0.004 | givinostat -0.045 | barasertib 0.023

FECH isoform 2 (UniProt P22830)
inactive: [1] 0.45 | [2] 0.162 | [3] -0.16 | [4] -0.006 | Nexturastat A -0.123 | vemurafenib 0.022 | [5] -0.167 | [6] 0.367 | givinostat -0.238 | barasertib -0.049

FAT1 (UniProt Q14517)
inactive: [1] -0.036 | [2] -0.218 | [3] -0.029 | [4] 0.053 | Nexturastat A 0.104 | vemurafenib -0.199 | [5] -0.051 | [6] -0.067 | givinostat 0.044 | barasertib 0.045

FKBP2 (UniProt P26885)
inactive: [1] 0.02 | [2] -0.023 | [3] 0.022 | [4] 0.062 | Nexturastat A -0.011 | vemurafenib -0.055 | [5] -0.053 | [6] -0.002 | givinostat -0.004 | barasertib 0.016

FAM98B (UniProt Q52LJ0)
inactive: [1] 0.062 | [2] -0.085 | [3] 0.05 | [4] -0.018 | Nexturastat A 0.022 | vemurafenib -0.014 | [5] 0.065 | [6] 0.013 | givinostat 0.041 | barasertib -0.013

FCGR2C (UniProt P31995)
inactive: [1] 0.006 | [2] -0.052 | [3] 0.021 | [4] 0.01 | Nexturastat A -0.013 | vemurafenib 0.011 | [5] -0.014 | [6] 0.01 | givinostat -0.018 | barasertib 0.01

Retrieved one by one from the list above, two records:
FAT1 (UniProt Q14517)
inactive: [1] -0.036 | [2] -0.218 | [3] -0.029 | [4] 0.053 | Nexturastat A 0.104 | vemurafenib -0.199 | [5] -0.051 | [6] -0.067 | givinostat 0.044 | barasertib 0.045

FKBPL (UniProt Q9UIM3)
inactive: [1] 0.011 | [2] 0.006 | [3] -0.047 | [4] 0 | Nexturastat A 0 | vemurafenib -0.017 | [5] -0.013 | [6] -0.004 | givinostat -0.045 | barasertib 0.023

(listing goes on)

FDXR isoform 7 (UniProt P22570)
inactive: [1] -0.011 | [2] -0.078 | [3] -0.039 | [4] 0.072 | Nexturastat A -0.07 | vemurafenib 0.02 | [5] 0.024 | [6] 0.059 | givinostat -0.021 | barasertib 0.035

FANCI (UniProt Q9NVI1)
inactive: [1] 0.012 | [2] 0.018 | [3] 0.01 | [4] 0.046 | Nexturastat A -0.054 | vemurafenib 0.016 | [5] 0.087 | [6] 0.009 | givinostat 0.043 | barasertib 0.029

FGF13 isoform 3 (UniProt Q92913)
inactive: [1] -0.029 | [2] 0.086 | [3] -0.048 | [4] 0.025 | Nexturastat A 0.047 | vemurafenib 0.058 | [5] -0.004 | [6] -0.112 | givinostat 0.032 | barasertib 0.027

FKBP9 (UniProt O95302)
inactive: [1] 0.003 | [2] -0.021 | [3] -0.079 | [4] -0.061 | Nexturastat A 0.014 | vemurafenib -0.059 | [5] -0.017 | [6] 0.027 | givinostat -0.047 | barasertib 0.009

FLNA (UniProt P21333)
inactive: [1] -0.03 | [2] -0.049 | [3] 0.015 | [4] 0.006 | Nexturastat A 0.092 | vemurafenib 0.021 | [5] 0.075 | [6] 0.044 | givinostat 0.092 | barasertib 0.019

FLAD1 (UniProt Q8NFF5)
inactive: [1] -0.182 | [2] -0.025 | [3] -0.015 | [4] 0.024 | Nexturastat A 0.01 | vemurafenib -0.043 | [5] -0.016 | [6] -0.018 | givinostat -0.006 | barasertib 0.03

FBH1 isoform 2 (UniProt Q8NFZ0)
inactive: [1] -0.115 | [2] -0.039 | [3] 0.023 | [4] -0.154 | Nexturastat A 0.076 | vemurafenib 0.119 | [5] 0.014 | [6] -0.439 | givinostat 0.027 | barasertib 0.004

FDX2 (UniProt Q6P4F2)
inactive: [1] -0.107 | [2] 0 | [3] 0.036 | [4] -0.174 | Nexturastat A 0.103 | vemurafenib -0.06 | [5] 0.04 | [6] -0.104 | givinostat -0.07 | barasertib -0.018

FKBP3 (UniProt Q00688)
inactive: [1] 0.024 | [2] 0 | [3] 0.009 | [4] 0.122 | Nexturastat A -0.002 | vemurafenib -0.015 | [5] -0.041 | [6] -0.013 | givinostat -0.023 | barasertib -0.02

FIP1L1 (UniProt Q6UN15)
inactive: [1] -0.096 | [2] 0.062 | [3] -0.04 | [4] -0.023 | Nexturastat A 0.142 | vemurafenib -0.042 | [5] -0.021 | [6] 0.034 | givinostat 0.017 | barasertib -0.057

FAM49B (UniProt Q9NUQ9)
inactive: [1] 0.008 | [2] 0.015 | [3] 0.002 | [4] 0.061 | Nexturastat A -0.115 | vemurafenib 0.011 | [5] 0.033 | [6] -0.075 | givinostat 0.003 | barasertib -0.001

FIBP (UniProt O43427)
inactive: [1] 0.046 | [2] -0.009 | [3] 0.001 | [4] 0 | Nexturastat A -0.009 | vemurafenib 0.03 | [5] 0.089 | [6] 0 | givinostat -0.009 | barasertib -0.071

FKBP10 (UniProt Q96AY3)
inactive: [1] 0.181

FBXO3 (UniProt Q9UK99)
inactive: [1] -0.042 | [2] -0.08 | [3] 0 | [4] -0.018 | Nexturastat A -0.043 | vemurafenib -0.089 | [5] -0.025 | [6] -0.057 | givinostat 0.049 | barasertib -0.043

FBXO5 (UniProt Q9UKT4)
inactive: [1] -0.031 | [2] 0.118 | [3] -0.027 | [4] -0.029 | Nexturastat A -0.004 | vemurafenib -0.037 | [5] -0.017 | [6] -0.06 | givinostat -0.009 | barasertib 0.022

FCHO1 (UniProt O14526)
inactive: [1] 0.103 | [2] -0.023 | [3] 0.004 | [4] -0.016 | Nexturastat A 0.053 | vemurafenib 0.254 | [5] 0.037 | [6] -0.003 | givinostat 0.073

FBXO22 (UniProt Q8NEZ5)
inactive: [1] 0.004 | [2] -0.016 | [3] 0.031 | [4] 0.02 | Nexturastat A -0.059 | vemurafenib 0.028 | [5] 0.027 | [6] -0.02 | givinostat 0 | barasertib 0.011

FDPS (UniProt P14324)
inactive: [1] -0.061 | [2] -0.068 | [3] 0.109 | [4] -0.077 | Nexturastat A 0.068 | vemurafenib 0.034 | [5] -0.001 | [6] -0.005 | givinostat 0.156 | barasertib 0.081

FDFT1 (UniProt P37268)
inactive: [1] -0.008 | [2] 0.01 | [3] 0.063 | [4] -0.034 | Nexturastat A 0.01 | vemurafenib 0 | [5] 0.092 | [6] 0.1 | givinostat -0.018 | barasertib 0.009

FKBP8 isoform 2 (UniProt Q14318)
inactive: [1] 0.057 | [2] -0.022 | [3] 0.05 | [4] -0.038 | Nexturastat A 0.205 | vemurafenib 0.009 | [5] 0.054 | [6] 0.105 | givinostat 0.117 | barasertib 0.086

FLT4 (UniProt P35916)
inactive: [1] 0.034 | [2] 0.06 | [3] 0.031 | [4] 0.013 | Nexturastat A -0.035 | vemurafenib 0.087 | [5] -0.051 | [6] -0.042 | givinostat -0.087 | barasertib -0.019

FDX1 (UniProt P10109)
inactive: [1] 0.101 | [2] 0 | [3] -0.018 | [4] -0.014 | Nexturastat A -0.041 | vemurafenib -0.028 | [5] -0.012 | [6] -0.09 | givinostat -0.033 | barasertib 0.069
